# Reference: the supplement of paper PMC8728848
# This is one part of the list.
# B1: PX14343G-pdi-535-24-535 (Parabacteroides distasonis) (protein)
# chain: LDTVPKDQLAPSTTWQTEADAKGFIVGCYKDLLDGNTLLYLDCGSDIGYNNFPWEGFRPWGDGSLSSSNPGQILYDYKSIRKANTFLENVDKVTFSSDAVKANYVAQAKAIRAYKYFLMNWWYGGVPIISSYSSADEAKVERNTEQEVRDYIAKDLDEALAGIAEAPEARGYIAKGAVLAIKMREALYYGDWQKAKDAAKAIIDLKQYELDPDYTNLFKVSGVDSKEIILADQNIETLDGLGTIGQMYNNVDQGWSSIVPTQNLVDMYEMSDGLTKEESKTYDAKHPFANRDPRMAMTILYPGRDWRGDVLNTLDEKLQDGTVNKNFPTYTDNASKSALTWAKYLDPMDQYGDVWSSGACPIVFRYAEVLLTYAEAANELSGPSDEIYGYLNQIRQRVGMGEVDKAKYGTKDKLRELIRRERTVELAGEGLRRADIVRWQEDGKMLAEKVMNGDLLRVTGTINYGESEPTKRAEITGTAVIETRQFSSRNRYLPIPQTSMDKNPNLKQNPGY
# Key:
# Assay in all cases: glycan array binding signal (z-score within array); higher = stronger binding
# Details in all cases: glycan notation: IUPAC condensed, linker removed
# [1] = biological target: Gal(b1-4)GlcNAc(b1-3)Gal(b1-4)GlcNAc(b1-6)[Gal(b1-3)]GalNAc
# Outline: (§1)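 Negative Z-scores can be read as non-binding. The Z-score is calculated within each array and then averaged across arrays of one protein sequence at different concentrations or buffers and across linkers. Arrays, 3228 in all, were curated from the Consortium for Functional Glycomics database and kept only where the protein sequence was available.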
# [2] = biological target: Gal(b1-4)GlcNAc(b1-3)Gal(b1-4)[Fuc(a1-3)]GlcNAc(b1-3)Gal(b1-4)[Fuc(a1-3)]GlcNAc
# Outline: as §1
# [3] = biological target: Gal(b1-4)GlcNAc(b1-3)GalNAc
# Outline: as §1
# [4] = biological target: Gal(b1-4)GlcNAc(b1-3)[Fuc(a1-3)GlcNAc(b1-6)]Gal(b1-4)Glc
# Outline: as §1
# [5] = biological target: Gal(b1-4)GlcNAc(b1-3)[Gal(b1-4)GlcNAc(b1-6)]Gal(b1-4)GlcNAc
# Outline: as §1
# [6] = biological target: Gal(b1-4)GlcNAc(b1-3)[GlcNAc(b1-6)]Gal(b1-4)GlcNAc
# Outline: as §1
# [7] = biological target: Gal(b1-4)GlcNAc(b1-6)Gal(b1-4)GlcNAc
# Outline: as §1
# [8] = biological target: Gal(b1-4)GlcNAc(b1-6)GalNAc
# Outline: as §1
# [9] = biological target: Gal(b1-4)GlcNAc(b1-6)[Gal(b1-3)]GalNAc
# Outline: as §1
# [10] = biological target: Gal(b1-4)GlcNAc(b1-6)[Gal(b1-4)GlcNAc(b1-3)]GalNAc
# Outline: as §1
# [11] = biological target: Gal(b1-4)GlcNAc6P
# Outline: as §1
# [12] = biological target: Gal(b1-6)Gal
# Outline: as §1
# [13] = biological target: Gal3S(b1-3)GalNAc
# Outline: as §1
# [14] = biological target: Gal3S(b1-3)GlcNAc
# Outline: as §1
# [15] = biological target: Gal3S(b1-3)[Fuc(a1-4)]GlcNAc
# Outline: as §1
# [16] = biological target: Gal3S(b1-4)Glc
# Outline: as §1
# [17] = biological target: Gal3S(b1-4)Glc6S
# Outline: as §1
# [18] = biological target: Gal3S(b1-4)GlcNAc
# Outline: as §1
# [19] = biological target: Gal3S(b1-4)[Fuc(a1-3)]Glc6S
# Outline: as §1
# [20] = biological target: Gal3S(b1-4)[Fuc(a1-3)]GlcNAc
# Outline: as §1
# [21] = biological target: Gal3S(b1-4)[Fuc(a1-3)]GlcNAc6S
# Outline: as §1
# [22] = biological target: Gal3S4S(b1-4)GlcNAc
# Outline: as §1
# [23] = biological target: Gal3S6S(b1-4)GlcNAc
# Outline: as §1
# [24] = biological target: Gal3S6S(b1-4)GlcNAc6S
# Outline: as §1
# [25] = biological target: Gal4S(b1-4)GlcNAc
# Outline: as §1
# [26] = biological target: Gal4S6S(b1-4)GlcNAc
# Outline: as §1
# [27] = biological target: Gal6P(b1-4)GlcNAc
# Outline: as §1
# [28] = biological target: Gal6S(b1-3)GlcNAc
# Outline: as §1
# [29] = biological target: Gal6S(b1-3)GlcNAc6S
# Outline: as §1
# [30] = biological target: Gal6S(b1-4)Glc
# Outline: as §1
# [31] = biological target: Gal6S(b1-4)Glc6S
# Outline: as §1
# [32] = biological target: Gal6S(b1-4)GlcNAc
# Outline: as §1
# [33] = biological target: Gal6S(b1-4)GlcNAc6S
# Outline: as §1
# [34] = biological target: GalNAc(a1-3)Gal
# Outline: as §1
# [35] = biological target: GalNAc(a1-3)GalNAc
# Outline: as §1
# [36] = biological target: GalNAc(a1-3)GalNAc(b1-3)Gal(a1-4)Gal(b1-4)Glc
# Outline: as §1
# [37] = biological target: GalNAc(a1-3)GalNAc(b1-3)Gal(a1-4)Gal(b1-4)GlcNAc
# Outline: as §1
# [38] = biological target: GalNAc(b1-3)Gal
# Outline: as §1
# [39] = biological target: GalNAc(b1-3)Gal(a1-4)Gal(b1-4)GlcNAc
# Outline: as §1
# [40] = biological target: GalNAc(b1-3)Gal(a1-4)Gal(b1-4)GlcNAc(b1-3)Gal(b1-4)Glc
# Outline: as §1
# [41] = biological target: GalNAc(b1-3)Gal(a1-6)Gal(b1-4)Glc
# Outline: as §1
# [42] = biological target: GalNAc(b1-3)GalNAc
# Outline: as §1
# [43] = biological target: GalNAc(b1-3)GlcNAc
# Outline: as §1
# [44] = biological target: GalNAc(b1-4)Gal(b1-4)Glc
# Outline: as §1
# [45] = biological target: GalNAc(b1-4)GlcNAc
# Outline: as §1
# [46] = biological target: GalNAc(b1-4)GlcNAc(b1-2)Man
# Outline: as §1
# [47] = biological target: GalNAc(b1-4)GlcNAc(b1-2)Man(a1-3)[GalNAc(b1-4)GlcNAc(b1-2)Man(a1-6)]Man(b1-4)GlcNAc(b1-4)GlcNAc
# Outline: as §1
# [48] = biological target: GalNAc(b1-4)GlcNAc(b1-3)GalNAc(b1-4)GlcNAc
# Outline: as §1
# [49] = biological target: GalNAc(b1-4)GlcNAc6S
# Outline: as §1
# [50] = biological target: GalNAc(b1-6)GalNAc
# Outline: as §1
# [51] = biological target: GalNAc3S(b1-4)GlcNAc
# Outline: as §1
# [52] = biological target: GalNAc3S(b1-4)GlcNAc3S
# Outline: as §1
# [53] = biological target: GalNAc3S(b1-4)[Fuc(a1-3)]GlcNAc
# Outline: as §1
# [54] = biological target: GalNAc4S6S(b1-4)GlcNAc
# Outline: as §1
# [55] = biological target: GalNAc6S(b1-4)GlcNAc
# Outline: as §1
# [56] = biological target: Glc(a1-4)Glc
# Outline: as §1
# [57] = biological target: Glc(a1-4)Glc(a1-4)Glc(a1-4)Glc
# Outline: as §1
# [58] = biological target: Glc(a1-6)Glc(a1-6)Glc
# Outline: as §1
# [59] = biological target: Glc(a1-6)Glc(a1-6)Glc(a1-6)Glc
# Outline: as §1
# [60] = biological target: Glc(b1-4)Glc
# Outline: as §1
# [61] = biological target: Glc(b1-6)Glc
# Outline: as §1
# [62] = biological target: GlcA(b1-3)Gal
# Outline: as §1
# [63] = biological target: GlcA(b1-3)GlcNAc
# Outline: as §1
# [64] = biological target: GlcA(b1-6)Gal
# Outline: as §1
# [65] = biological target: GlcA3S(b1-3)Gal(b1-4)GlcNAc(b1-2)Man
# Outline: as §1
# [66] = biological target: GlcA3S(b1-3)Gal(b1-4)GlcNAc(b1-3)Gal(b1-4)Glc
# Outline: as §1
# [67] = biological target: GlcNAc(a1-3)Gal(b1-4)GlcNAc
# Outline: as §1
# [68] = biological target: GlcNAc(a1-4)Gal(b1-3)GlcNAc
# Outline: as §1
# [69] = biological target: GlcNAc(a1-4)Gal(b1-4)GalNAc
# Outline: as §1
# [70] = biological target: GlcNAc(a1-4)Gal(b1-4)GlcNAc
# Outline: as §1
# [71] = biological target: GlcNAc(a1-4)Gal(b1-4)GlcNAc(b1-3)Gal(b1-4)Glc
# Outline: as §1
# [72] = biological target: GlcNAc(a1-4)Gal(b1-4)GlcNAc(b1-3)Gal(b1-4)GlcNAc
# Outline: as §1
# [73] = biological target: GlcNAc(a1-4)Gal(b1-4)GlcNAc(b1-3)Gal(b1-4)GlcNAc(b1-3)Gal(b1-4)GlcNAc
# Outline: as §1
# [74] = biological target: GlcNAc(a1-4)Gal(b1-4)GlcNAc(b1-3)Gal(b1-4)[Fuc(a1-3)]GlcNAc(b1-3)Gal(b1-4)[Fuc(a1-3)]GlcNAc
# Outline: as §1
# [75] = biological target: GlcNAc(a1-6)Gal(b1-4)GlcNAc
# Outline: as §1
binder,measurement,setting,value
B1,glycan array binding signal (z-score),[1],0.647
same,glycan array binding signal (z-score),[2],0.98
same,glycan array binding signal (z-score),[3],-0.108
same,glycan array binding signal (z-score),[4],0.704
same,glycan array binding signal (z-score),[5],0.781
same,glycan array binding signal (z-score),[6],-0.369
same,glycan array binding signal (z-score),[7],-0.057
same,glycan array binding signal (z-score),[8],-0.574
same,glycan array binding signal (z-score),[9],-0.156
same,glycan array binding signal (z-score),[10],-0.232
same,glycan array binding signal (z-score),[11],-0.16
same,glycan array binding signal (z-score),[12],-0.581
same,glycan array binding signal (z-score),[13],-0.532
same,glycan array binding signal (z-score),[14],-0.32
same,glycan array binding signal (z-score),[15],-0.198
same,glycan array binding signal (z-score),[16],0.612
same,glycan array binding signal (z-score),[17],0.802
same,glycan array binding signal (z-score),[18],0.428
same,glycan array binding signal (z-score),[19],0.549
same,glycan array binding signal (z-score),[20],0.621
same,glycan array binding signal (z-score),[21],2.01
same,glycan array binding signal (z-score),[22],-0.26
same,glycan array binding signal (z-score),[23],0.193
same,glycan array binding signal (z-score),[24],-0.415
same,glycan array binding signal (z-score),[25],-0.268
same,glycan array binding signal (z-score),[26],-0.635
same,glycan array binding signal (z-score),[27],-0.509
same,glycan array binding signal (z-score),[28],-0.74
same,glycan array binding signal (z-score),[29],-0.027
same,glycan array binding signal (z-score),[30],-0.698
same,glycan array binding signal (z-score),[31],0.442
same,glycan array binding signal (z-score),[32],-0.595
same,glycan array binding signal (z-score),[33],-0.672
same,glycan array binding signal (z-score),[34],0.265
same,glycan array binding signal (z-score),[35],0.818
same,glycan array binding signal (z-score),[36],-0.212
same,glycan array binding signal (z-score),[37],0.409
same,glycan array binding signal (z-score),[38],-0.865
same,glycan array binding signal (z-score),[39],-0.442
same,glycan array binding signal (z-score),[40],0.782
same,glycan array binding signal (z-score),[41],1.05
same,glycan array binding signal (z-score),[42],1.43
same,glycan array binding signal (z-score),[43],-0.329
same,glycan array binding signal (z-score),[44],0.84
same,glycan array binding signal (z-score),[45],-0.473
same,glycan array binding signal (z-score),[46],-2.07
same,glycan array binding signal (z-score),[47],1.28
same,glycan array binding signal (z-score),[48],-1.17
same,glycan array binding signal (z-score),[49],-0.01
same,glycan array binding signal (z-score),[50],-0.038
same,glycan array binding signal (z-score),[51],-0.044
same,glycan array binding signal (z-score),[52],0.059
same,glycan array binding signal (z-score),[53],0.314
same,glycan array binding signal (z-score),[54],0.279
same,glycan array binding signal (z-score),[55],0.437
same,glycan array binding signal (z-score),[56],-0.422
same,glycan array binding signal (z-score),[57],0.888
same,glycan array binding signal (z-score),[58],0.637
same,glycan array binding signal (z-score),[59],0.739
same,glycan array binding signal (z-score),[60],0.861
same,glycan array binding signal (z-score),[61],-0.808
same,glycan array binding signal (z-score),[62],0.33
same,glycan array binding signal (z-score),[63],0.187
same,glycan array binding signal (z-score),[64],-0.046
same,glycan array binding signal (z-score),[65],0.521
same,glycan array binding signal (z-score),[66],-0.239
same,glycan array binding signal (z-score),[67],-0.375
same,glycan array binding signal (z-score),[68],0.205
same,glycan array binding signal (z-score),[69],-1.02
same,glycan array binding signal (z-score),[70],2.04
same,glycan array binding signal (z-score),[71],0.258
same,glycan array binding signal (z-score),[72],-0.307
same,glycan array binding signal (z-score),[73],-0.853
same,glycan array binding signal (z-score),[74],1.32
same,glycan array binding signal (z-score),[75],1.81

# Reprinted from the results shown for reference:
binder,measurement,setting,value
B1,glycan array binding signal (z-score),[13],-0.532
same,glycan array binding signal (z-score),[14],-0.32
same,glycan array binding signal (z-score),[15],-0.198
same,glycan array binding signal (z-score),[16],0.612
same,glycan array binding signal (z-score),[17],0.802
same,glycan array binding signal (z-score),[18],0.428
same,glycan array binding signal (z-score),[19],0.549
same,glycan array binding signal (z-score),[20],0.621
same,glycan array binding signal (z-score),[21],2.01
same,glycan array binding signal (z-score),[22],-0.26
same,glycan array binding signal (z-score),[23],0.193
same,glycan array binding signal (z-score),[24],-0.415
same,glycan array binding signal (z-score),[25],-0.268
same,glycan array binding signal (z-score),[26],-0.635
same,glycan array binding signal (z-score),[27],-0.509
same,glycan array binding signal (z-score),[28],-0.74
same,glycan array binding signal (z-score),[29],-0.027
same,glycan array binding signal (z-score),[30],-0.698
same,glycan array binding signal (z-score),[31],0.442
same,glycan array binding signal (z-score),[32],-0.595
same,glycan array binding signal (z-score),[33],-0.672
